Data from patent US20060292683A1, “Cross-beta structures on microbial organisms” (Crossbeta Biosciences B.V., priority 2005, published 2006).
For at least one compound, name, drawing or mass did not settle the structure.

Test system: E. coli TOP10
Assay: Binding of dyes to E. coli TOP10 by visual inspection
Design: species or system Escherichia coli
Method: Staphylococcus aureus Newman, which was a kind gift of Dr. Jos van Strijp and Dr Kok van Kessel (Dept. of Microbiology, University Medical Center Utrecht, the Netherlands) was plated on a blood plate from a stock stored at −70° C., and incubated overnight at 37° C. The plate was stored at 4° C. Escherichia coli strain TOP10 (Invitrogen, 44-0301) was plated on agar with Luria broth medium from a −80° C. glycerol stock, and incubated overnight at 37° C. The plate was stored at 4° C. Overnight cultures of 5 ml in Luria broth medium were grown at 37° C. with vigorous shaking and aeration, by streaking a single colony with the tip of a pipet and transferring the tip to the medium in a 15-ml tube. The cell density in overnight cultures was determined by measuring the absorbance at 600 nm (A600=1 is equivalent with 0.8×10^9 cells/ml). Cells were pelleted by centrifugation for one minute at 16,000*g or for ten minutes at 3,000*g. Medium was discarded. One half of the cells were resuspended in PBS in 1/10 of the original medium volume (10× concentration of the cells) by pipetting and swirling. These cells were used as reference cells. […]
Binding of cross-beta structure binding compounds to E. coli TOP10 and S. aureus Newman after incubation of the bacteria with Thioflavin T, Congo red, tPA and IgIV, as described in the Materials & Methods section, was determined in two ways. […]

For `Cc1ccc2c(c1)sc(-c1ccc(N(C)C)cc1)[n+]2C.[Cl-]` [Thioflavin T], the ThT binding was “+”.
